Source: PubChem BioAssay AID488835 (Broad Institute, 2010)
The campaign covered roughly 1,400 compounds. About 140 (10%) were called active.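 How the source made its calls: active means Half-maximal inhibitory dose from the fit at or below ten times the top valid tested dose; inconclusive means Invalid fit, or flat curve showing 30 to 70% inhibition; inactive means the rest.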 The list shows a part of the results, in another mix than the full data. Potency and affinity values are given separately.

The chains behind the UniProt entries cited, without tags or fusion partners. Residues count along the entry.
UniProt Q9H3R0, 1-420 limits assumed: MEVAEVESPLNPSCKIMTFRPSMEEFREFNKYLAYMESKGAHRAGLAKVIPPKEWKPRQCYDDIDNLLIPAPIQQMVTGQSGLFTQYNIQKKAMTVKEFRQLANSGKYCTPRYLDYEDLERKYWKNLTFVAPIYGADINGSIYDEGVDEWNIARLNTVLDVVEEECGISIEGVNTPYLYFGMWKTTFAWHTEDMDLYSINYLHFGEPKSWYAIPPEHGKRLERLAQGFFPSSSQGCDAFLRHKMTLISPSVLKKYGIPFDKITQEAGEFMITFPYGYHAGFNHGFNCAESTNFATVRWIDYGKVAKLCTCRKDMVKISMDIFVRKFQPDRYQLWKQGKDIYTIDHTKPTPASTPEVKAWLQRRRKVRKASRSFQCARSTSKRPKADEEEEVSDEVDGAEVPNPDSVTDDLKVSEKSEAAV

These molecules were tested against Lysine-specific demethylase 4C (Homo sapiens) (UniProt Q9H3R0) (assay: GASC-1 (JMJD2C) histone demethylase inhibitors, dose response, biochemical, DELFIA europium, cherry-picked samples (AID 488835;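 further: signal is the H3K9me2 demethylation product detected by a dimethyl-specific antibody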)). Details: GST-JMJD2C(1-420), H3K9me3 demethylation; at 6 µM (top of the series) unless noted.

Activity change, negative = inhibition, inactive:
CCn1c(=O)c(C(=O)NCCc2ccc(Cl)cc2)c(O)c2ccccc21 -3.1%
CC1CCCC(NC(=O)COC(=O)c2ccc(N(C)C)cc2)C1C (stereo not given) 4.96%
CN(C)/C=C1/Nc2ccccc2C1=O 5.13%
C[C@H](CO)N1C[C@H](C)[C@@H](CN(C)Cc2ccc(Cl)c(Cl)c2)Oc2c(NC(=O)c3ccncc3)cccc2C1=O -4.99%
O=C(CN1C(=O)NC2(CCCC2)C1=O)Nc1nc(-c2ccccc2)cs1 -9.35%
COC(=O)c1cc(S(=O)(=O)N2CCN(c3ccc(F)cc3)CC2)c[nH]1 4.97%
Cc1[nH]n(-c2ccccc2)c(=O)c1N=Nc1nccs1 -6.11%
Fc1ccc(NC(=S)Nc2ccc(Cl)cc2Cl)cc1 -3.58%
N#Cc1cnn(CC2CCCCC2)c1N 6%
O=C(c1cc2ccccc2oc1=O)N1CCN(CCc2ccccc2)CC1 -7.89%
O=c1c2c(nc3c(-c4cccc5ccccc45)c[nH]n13)CCC2 5.22%
CCSCC1COC(c2cccn2Cc2ccc(C)cc2)=N1 (stereo not given) 3.44%
COCCn1c(N)c(C(=O)NCC2CCCO2)c2nc3ccccc3nc21 (stereo not given) -0.291%
COc1ccc(S(=O)(=O)N(C)C[C@H]2Oc3ccc(NS(=O)(=O)c4cccs4)cc3CC(=O)N([C@H](C)CO)C[C@H]2C)cc1 2.24%
Cc1cccn2c(=O)c(C(=O)NC3CC(C)CC(C)(C)C3)c(O)nc12 (stereo not given) -4.7%
N#Cc1cnc(NOCc2ccc(Cl)cc2)nc1 9.12%
Cc1ccc(S(=O)(=O)N2CCN(C(=O)N3CCOCC3)CC2)cc1C 6.26%
C=CCn1c(N)c(-c2nc3ccccc3n2C)sc1=S -2.32%
CCNC(=S)NC(=NCc1cccnc1)Nc1nc(C)cc(C)n1 -0.344%
Cc1cc(C)cc(C(=O)N2CCC(C(N)=O)CC2)c1 3.06%
COc1ccc2c(c1)CC(C1(O)C(=O)N(C)c3ccccc31)C2=O (stereo not given) 1.43%
COc1ccc(N2CCN(C(=O)CSc3nnc(-c4ccco4)n3C)CC2)cc1 4.94%
COc1ccc(NC(=O)C2OC3OC(C)(C)OC3C3OC(C)(C)OC23)cc1 (stereo not given) -6.23%
COc1cc(CN2CCN(C(=O)CC(C)C)CC2)cc(OC)c1OC -3.19%
CC(=O)N1C(c2ccccc2O)C[C@]2(C)CC(=O)NC12 (stereo not given in full) -1.35%
Cc1ccc(C(O)(C(=O)NNc2ccccn2)c2ccc(C)cc2)cc1 0.26%
CC1CN(Cc2ccccc2)c2nc3c(c(=O)n(C)c(=O)n3C)n2C1 (stereo not given) 4.53%
CN(C)CCNC(=O)c1onc(CSc2ccncc2)c1C(=O)NCCN(C)C -0.433%
COc1ccccc1/C=C1\SC(=S)N(CCC(=O)NNC(=O)c2ccccc2OC)C1=O -3.17%
CN(C(=O)c1ccc(NC(=O)Cc2ccc(NC(=O)C3CCN(C(=O)C4CCC4)CC3)cc2)cc1)C1CC1 -3.69%
NC(=O)COC(=O)Cc1coc2cc3c(cc12)CCC3 -0.0989%
CCN(Cc1nc(-c2ccccc2)no1)C(=O)c1ccco1 9.74%
Cc1ccc(S(=O)(=O)NC(=O)NC(C)Cc2ccccc2)cc1 (stereo not given) 0.87%
Cc1cccc(C(=O)NCC(c2ccco2)N2CCc3ccccc32)c1 (stereo not given) 4.14%
Cc1noc(C)c1COc1ccc(C(=O)NCC2CCCO2)cc1 (stereo not given) 6.29%
Cc1nnc(SCc2nnc(-c3ccccc3)o2)n(N)c1=O -1.28%
CCC(C)[C@H](NC(=O)NCc1ccccc1Cl)C(=O)O (stereo not given in full) -2.17%
Cc1nc2ccc(NC(=O)c3oc4ccc(F)cc4c3C)cc2s1 -3.77%
CN(C)/C=N/c1sccc1C(N)=O 1.63%
Cc1ccccc1N=C1N=C(N)c2ccccc21 -0.0737%
C/C(CC(=O)Nc1cccc(Cl)c1Cl)=N\NC(=O)c1ccccc1N -1.55%
CCN(CC)c1ccc(C(=O)OCC(=O)N2CCCC2)cc1 8.43%
O=C(c1cc2c(s1)CCC2)N1C(=O)c2ccccc2S1(=O)=O 2.58%
COc1ccc(/C=N/Nc2ncnc(Cl)c2N)cc1OC -1.24%
C[C@@H]1CN([C@H](C)CO)C(=O)c2cc(NC(=O)Cc3ccccc3)ccc2O[C@H]1CN(C)Cc1ccc(Oc2ccccc2)cc1 4.38%
COc1cc(N)c(C(O)c2nccc3cc(OC)c(OC)cc23)cc1OC (stereo not given) 2.3%
O=C(C1CCCCC1)N1CCC(c2nc3c(nnn3Cc3c(F)cccc3Cl)c(=O)[nH]2)CC1 1.1%
C/C(=N\N1CCN(c2ccccc2)CC1)c1ccncc1 -0.735%
CC(SCc1ccccc1)C(=O)Nc1ccccc1 (stereo not given) -3.98%
CC1=C(C(=O)OCC2CCCO2)C(c2ccccc2OC(C)C)C2=C(CC(c3ccco3)CC2=O)N1 (stereo not given) 2.87% [at 1.6 µM]
Cc1cnc(NC(=O)c2ccc(-c3nc4ccccc4s3)o2)s1 -1.09%
Cc1cccc2cc(C#N)c(SCCN3CCCCC3)nc12 6.01%
OC(COc1ccc2ccccc2c1Br)Cn1cnc(-c2ccccc2)c1 (stereo not given) -3.27%
COc1ccc(CCNC(=O)COC(=O)c2ccc(Br)o2)cc1 1.54%
O=C(O)c1ccccc1OCCOc1ccccc1C(=O)O 11.2%
CCC/C(=N\NC(=O)c1csc(C)c1C)c1cccs1 8.49%
O=C(Nc1ccccc1)Nc1ccc(S(=O)(=O)N2CCCCC2)cc1 -7.48%
CCCCn1c(N)c(N(CC)C(=O)c2ccco2)c(=O)[nH]c1=O -4.81%
CCCc1c(NC(=O)Nc2ccc(F)cc2)cnn1-c1ccccc1 7.81%
C#CC[N+]1(CC#Cc2ccc(C#CC[N+]3(CC#C)CCOCC3)cc2)CCOCC1 -11%
N#Cc1cc(-c2ccccc2)nnc1Sc1ccccc1 -0.418%
CCCCC(=O)NC(Nc1nc(C2CC2)cs1)(C(=O)OCC)C(F)(F)F (stereo not given) -1.23%
COC(=O)[C@]1(C)N[C@H](CN(C)S(=O)(=O)c2ccc(F)cc2)[C@@H]2C(=O)N(C)C(=O)[C@@H]21 2.62%
Cc1cc(-c2n[nH]c(=S)o2)c(C)n1-c1ccccc1 -1.23%
Cc1ccc(/C=N/NC(=O)c2ccc(C(=O)N/N=C/c3ccc(C)s3)o2)s1 13.9%
O=C(NCCCn1ccnc1)c1cc2c(ccc3ccccc32)o1 9.56%
CCCOC(=O)c1ccc(-c2ccc(C=O)o2)cc1 5.23%
COC(=O)c1cc(OC)c(OC)cc1NC(=O)Cn1nnc(-c2ccccc2Cl)n1 4.22%
C[C@H](CO)N1C[C@H](C)[C@H](CN(C)S(=O)(=O)c2ccccc2)Oc2c(NS(C)(=O)=O)cccc2C1=O 1.69%
Cc1ccccc1NS(=O)(=O)c1ccc(C(=O)NCC(c2ccco2)N(C)C)cc1 (stereo not given) -0.352%
CCCc1nn2c(=O)cc(CSCC(=O)Nc3ccccc3)nc2s1 -4.93%
Cc1ccc([N+](=O)[O-])cc1N=C(c1cccc([N+](=O)[O-])c1)N1CCOCC1 4.23%
O=C1c2ccccc2C(=O)N1CCC(c1ccccc1)c1ccco1 (stereo not given) -0.258%
O=[N+]([O-])c1cc(Cl)ccc1Nc1ccccc1 2.42%
CCc1ccc(NC(=O)CSc2nnc(CNC(=O)c3c(F)cccc3Cl)o2)cc1 0.0635%
N#CC1(NC(=O)Cn2ncc(Cl)c(Cl)c2=O)CCCCC1 0.641%
Cc1cc(C)c(OCC(=O)Nc2ccc(NC(=O)c3ccco3)cc2)c([N+](=O)[O-])c1 -0.32%
CCOC(=O)CCCCCC(=O)Nc1ccc2c(c1)CC(=O)N([C@H](C)CO)C[C@@H](C)[C@H](CN(C)Cc1ccc3c(c1)OCO3)O2 0.382%
C[C@@H]1CN([C@@H](C)CO)C(=O)c2cc(NC(=O)Nc3ccc4c(c3)OCO4)ccc2O[C@H]1CN(C)S(=O)(=O)c1ccc(F)cc1 -2.71%
COc1ccc2c(c1)OC[C@H]1[C@H]2N2C(=O)CNC(=O)[C@@]2(C)[C@H]1c1ccccc1 -2.38%
C[C@H](N)c1nnc(SCC(=O)N(C)C)o1 3.49%
OCc1ccc(OCCCOc2cccc3cccnc23)cc1 -4.13%
Nc1nn2c(-c3ccccc3)cc(=O)[nH]c2c1N=Nc1ccc(O)cc1 2.37%
O=C(/C=C\c1ccc2c(c1)OCO2)NC1(C(=O)Nc2ccc3c(c2)OCO3)CCCCC1 4.16%
CCC(=O)Nc1ccc(NC(=O)CSc2nnnn2C(C)C)cc1 11.2%
O=C(CSc1nc(-c2ccccc2)cc(=O)[nH]1)NCc1ccc2c(c1)OCO2 8.8%
O=C(NCC(c1ccco1)N1CCCCC1)c1ccc(OCc2ccccc2)cc1 (stereo not given) -9.65%
CCOC(=O)N1CCN(c2ccc(F)cc2[N+](=O)[O-])CC1 2.68%
O=C(Oc1cccc2cccnc12)c1cccc(N2C(=O)C3C4CCC(C4)C3C2=O)c1 (stereo not given) 2.1%
CCc1ccc(-c2nc(CN3CCC(C(=O)NCc4ccc(F)cc4)CC3)c(C)o2)cc1 2.76%

Among those listed so far, these have a COOH group.
Activity change, negative = inhibition, inactive:
CCC(C)[C@H](NC(=O)NCc1ccccc1Cl)C(=O)O (stereo not given in full) -2.17%
O=C(O)c1ccccc1OCCOc1ccccc1C(=O)O 11.2%
